# Experimental data: the supplement of paper PMC6331611
# ± gives the standard deviation of the averaged measurements. The full ranking holds about 1,600 compounds; the median of “normalized intracellular growth (luminescence, IQM-normalized) in RAW264.7 macrophages” is about 1, and the lowest 2% start at about 0.43. Some of the results follow.
# Tested on: Salmonella enterica serovar Typhimurium SL1344
# Assay: normalized intracellular growth (luminescence, IQM-normalized) in RAW264.7 macrophages (fraction of plate interquartile mean); higher = more bacterial growth (less inhibition)
# Settings: 10 µM
SMILES,normalized intracellular growth (time point: T3 (3 h)),normalized intracellular growth (time point: Tfinal (~6 h))
CCCCC1C(=O)N(c2ccccc2)N(c2ccccc2)C1=O,0.986 ± 0.043,1.08 ± 0.04
O=C(Nc1ccccc1)OCC(CN1CCCCC1)OC(=O)Nc1ccccc1 (configuration not stated),1.02 ± 0.084,1.24 ± 0.32
N=C(N)c1ccc(N=NNc2ccc(C(=N)N)cc2)cc1,0.994 ± 0.014,0.922 ± 0.023
CCCC(=O)Nc1ccc(OCC(O)CNC(C)C)c(C(C)=O)c1 (configuration not stated),0.948 ± 0.099,1 ± 0.1
C[C@@H]1O[C@@H](OC[C@H]2O[C@@H](Oc3c(-c4ccc(O)c(O)c4)oc4cc(O)cc(O)c4c3=O)[C@H](O)[C@@H](O)[C@@H]2O)[C@H](O)[C@H](O)[C@H]1O,0.989 ± 0.045,0.977 ± 0.15
CO/N=C(\C(=O)N[C@@H]1C(=O)N2C(C(=O)O)=C(CSC(=O)c3ccco3)CS[C@H]12)c1csc(N)n1,1 ± 0.029,0.0233 ± 0.0029
Cc1oc(=O)oc1CN1CCN(c2cc3c(cc2F)c(=O)c(C(=O)O)c2n3C(C)S2)CC1 (configuration not stated),1.14 ± 0.069,0.0187 ± 0.0013
C=COCC(F)(F)F,0.944 ± 0.035,0.991 ± 0.069
CC(=O)OCC(=O)[C@@]12OC3(CCCC3)O[C@@H]1C[C@H]1[C@@H]3CCC4=CC(=O)C=C[C@]4(C)[C@@]3(F)[C@@H](O)C[C@@]12C,0.993 ± 0.075,0.85 ± 0.32
N[C@@H](CC(=O)N1CCn2c(nnc2C(F)(F)F)C1)Cc1cc(F)c(F)cc1F,1.03 ± 0.014,1.08 ± 0.09
C#CC1(O)CC[C@H]2[C@@H]3CCC4=CC(=O)CC[C@@H]4[C@H]3CC[C@@]21CC (some centres not stated),0.987 ± 0.056,0.966 ± 0.07
Cc1c(C)c2c(c(C)c1O)CCC(C)(CCCC(C)CCCC(C)CCCC(C)C)O2 (stereo not drawn) [alpha-TOCHOPHEROL],0.999 ± 0.14,1.1 ± 0.13
CC(=O)O[C@]1(C(C)=O)CC[C@H]2[C@@H]3C=C(C)C4=CC(=O)CC[C@]4(C)[C@H]3CC[C@@]21C,0.828 ± 0.025,0.97 ± 0.073
NC[C@H]1O[C@H](O[C@H]2[C@H](O)[C@@H](O[C@H]3O[C@H](CO)[C@@H](O)[C@H](N)[C@H]3O)[C@H](N)C[C@@H]2N)[C@H](N)[C@@H](O)[C@@H]1O,0.81 ± 0.012,0.554 ± 0.025
CC[C@@]1(O)C(=O)OCc2c1cc1n(c2=O)Cc2cc3c(CN(C)C)c(O)ccc3nc2-1,1.01 ± 0.046,0.961 ± 0.047
Nc1nnc(-c2cccc(Cl)c2Cl)c(N)n1,0.926 ± 0.046,1.35 ± 0.061
Nc1nc(=O)[nH]cc1F,1.07 ± 0.058,1.28 ± 0.1
COc1ccc2cc3[n+](cc2c1OC)CCc1cc2c(cc1-3)OCO2,1.01 ± 0.041,0.957 ± 0.13
OCC(S)CS (configuration not stated),0.927 ± 0.011,1.03 ± 0.053
O=C(c1cccnc1)N1CCOCC1,1.01 ± 0.09,0.728 ± 0.18
CC(=O)NC[C@H]1CN(c2ccc(N3CCOCC3)c(F)c2)C(=O)O1,1.05 ± 0.013,0.941 ± 0.22

SMILES,normalized intracellular growth (time point: T3 (3 h)),normalized intracellular growth (time point: Tfinal (~6 h))
NC(=O)c1cc[n+](CC2=C(C(=O)[O-])N3C(=O)[C@@H](NC(=O)Cc4cccs4)[C@H]3SC2)cc1,0.99 ± 0.024,1.12 ± 0.2
Cc1nccn1CC1CCc2c(c3ccccc3n2C)C1=O (configuration not stated),1.09 ± 0.024,1.34 ± 0.07
O=C1C(O)=C(O)C(=O)C(O)=C1O,0.998 ± 0.096,0.863 ± 0.15
COc1ccc2c(c1)c(CC(=O)OCC(=O)O)c(C)n2C(=O)c1ccc(Cl)cc1,0.973 ± 0.022,1.02 ± 0.11
Cc1c2oc3c(C)ccc(C(=O)N[C@@H]4C(=O)N[C@H](C(C)C)C(=O)N5CCC[C@H]5C(=O)N(C)CC(=O)N(C)[C@@H](C(C)C)C(=O)O[C@@H]4C)c3nc-2c(C(=O)N[C@@H]2C(=O)N[C@H](C(C)C)C(=O)N3CCC[C@H]3C(=O)N(C)CC(=O)N(C)[C@@H](C(C)C)C(=O)O[C@@H]2C)c(N)c1=O,0.861 ± 0.057,1.05 ± 0.12
CC1=C(C(=O)O)N2C(=O)[C@@H](NC(=O)[C@H](N)c3ccccc3)[C@H]2SC1,1.017 ± 0.0017,1.07 ± 0.1
CC[C@H](C)C(=O)O[C@H]1C[C@H](O)C=C2C=C[C@H](C)[C@H](CC[C@@H](O)C[C@@H](O)CC(=O)O)[C@H]21,0.968 ± 0.022,0.99 ± 0.025
CC(C)(C)NCC(O)COc1cccc2c1CC(O)C(O)C2 (configuration not stated),0.99 ± 0.045,1.16 ± 0.068
CC1=C(C(=O)O)N2C(=O)[C@@H](NC(=O)[C@H](N)c3ccc(O)cc3)[C@H]2SC1,0.982 ± 0.0066,0.831 ± 0.018
CC(C)(Oc1ccc(C2CC2(Cl)Cl)cc1)C(=O)O (configuration not stated),0.988 ± 0.028,0.999 ± 0.011
C=C(NC(=O)C(=C)NC(=O)c1csc(C2=N[C@@H]3c4csc(n4)[C@H]4NC(=O)c5csc(n5)[C@H]([C@](C)(O)[C@@H](C)O)NC(=O)[C@H]5CSC(=N5)/C(=C/C)NC(=O)[C@H]([C@@H](C)O)NC(=O)c5csc(n5)[C@]3(CC2)NC(=O)[C@H](C)NC(=O)C(=C)NC(=O)[C@H](C)NC(=O)[C@H]([C@@H](C)CC)N[C@@H]2C=Cc3c([C@H](C)O)cc(nc3[C@H]2O)C(=O)O[C@@H]4C)n1)C(N)=O,0.999 ± 0.025,0.898 ± 0.21
O=C(O)CCc1nc2ccccc2[nH]1,0.989 ± 0.059,1.07 ± 0.042
C[C@@H]1CC2C3C[C@H](F)C4=CC(=O)C=C[C@]4(C)[C@@]3(F)[C@@H](O)C[C@]2(C)[C@@]1(O)C(=O)COC(=O)C(C)(C)C (some centres not stated),0.961 ± 0.055,0.888 ± 0.12
NC(=O)c1cccnc1,1.01 ± 0.037,1.15 ± 0.076
Nc1nccs1,1.03 ± 0.072,0.911 ± 0.12
Cn1c(=O)c2c(ncn2CC(O)CO)n(C)c1=O (configuration not stated),1.11 ± 0.091,1.48 ± 0.2
CCCc1nc(C(C)(C)O)c(C(=O)OCc2oc(=O)oc2C)n1Cc1ccc(-c2ccccc2-c2nnn[nH]2)cc1,1 ± 0.026,0.855 ± 0.39
CCCCCCCCCCCCCCCC[N+](C)(C)C,1.11 ± 0.042,0.724 ± 0.038
NC(=O)C1(N2CCCCC2)CCN(CCCC(=O)c2ccc(F)cc2)CC1,0.984 ± 0.085,0.965 ± 0.16
CCC(C)(C)c1ccc(CC(C)CN2C[C@@H](C)O[C@@H](C)C2)cc1 (some centres not stated),1.02 ± 0.038,0.929 ± 0.28
CC[C@]12CCCN3CCc4c(n(c5ccccc45)[C@@](O)(C(=O)OC)C1)[C@@H]32,1.04 ± 0.081,0.962 ± 0.17

# As a working copy, some entries already given.
SMILES,normalized intracellular growth (time point: T3 (3 h)),normalized intracellular growth (time point: Tfinal (~6 h))
CC(C)(C)NCC(O)COc1cccc2c1CC(O)C(O)C2 (configuration not stated),0.99 ± 0.045,1.16 ± 0.068
CC1=C(C(=O)O)N2C(=O)[C@@H](NC(=O)[C@H](N)c3ccc(O)cc3)[C@H]2SC1,0.982 ± 0.0066,0.831 ± 0.018
CC(C)(Oc1ccc(C2CC2(Cl)Cl)cc1)C(=O)O (configuration not stated),0.988 ± 0.028,0.999 ± 0.011
C=C(NC(=O)C(=C)NC(=O)c1csc(C2=N[C@@H]3c4csc(n4)[C@H]4NC(=O)c5csc(n5)[C@H]([C@](C)(O)[C@@H](C)O)NC(=O)[C@H]5CSC(=N5)/C(=C/C)NC(=O)[C@H]([C@@H](C)O)NC(=O)c5csc(n5)[C@]3(CC2)NC(=O)[C@H](C)NC(=O)C(=C)NC(=O)[C@H](C)NC(=O)[C@H]([C@@H](C)CC)N[C@@H]2C=Cc3c([C@H](C)O)cc(nc3[C@H]2O)C(=O)O[C@@H]4C)n1)C(N)=O,0.999 ± 0.025,0.898 ± 0.21
O=C(O)CCc1nc2ccccc2[nH]1,0.989 ± 0.059,1.07 ± 0.042
C[C@@H]1CC2C3C[C@H](F)C4=CC(=O)C=C[C@]4(C)[C@@]3(F)[C@@H](O)C[C@]2(C)[C@@]1(O)C(=O)COC(=O)C(C)(C)C (some centres not stated),0.961 ± 0.055,0.888 ± 0.12
NC(=O)c1cccnc1,1.01 ± 0.037,1.15 ± 0.076

# Continued:

SMILES,normalized intracellular growth (time point: T3 (3 h)),normalized intracellular growth (time point: Tfinal (~6 h))
CCOc1nc2cccc(C(=O)OC(C)OC(=O)OC3CCCCC3)c2n1Cc1ccc(-c2ccccc2-c2nn[nH]n2)cc1 (configuration not stated),0.988 ± 0.048,0.592 ± 0.089
Nc1ccc(S(N)(=O)=O)cc1,0.9673 ± 0.006,1.07 ± 0.1
CC(CCc1ccc(O)cc1)NCCc1ccc(O)c(O)c1 (configuration not stated),0.914 ± 0.062,1.04 ± 0.14
OC[C@H]1O[C@H](O[C@H]2[C@H](O)[C@@H](O)C(O)O[C@@H]2CO)[C@H](O)[C@@H](O)[C@@H]1O (some centres not stated),0.919 ± 0.086,0.986 ± 0.012
CN(C)CCC(c1ccccc1)c1ccccn1 (configuration not stated),0.984 ± 0.04,0.862 ± 0.3
CC(C)CCC[C@@H](C)[C@H]1CC[C@H]2[C@@H]3CC=C4C[C@@H](O)CC[C@]4(C)[C@H]3CC[C@]12C,1.06 ± 0.037,0.958 ± 0.087
NC[C@H]1CC[C@H](C(=O)O)CC1,1 ± 0.042,0.997 ± 0.014
C=CCc1ccccc1OCC(O)CNC(C)C (configuration not stated),0.928 ± 0.072,0.993 ± 0.11
CC(=O)OC(C)C[N+](C)(C)C (configuration not stated),0.892 ± 0.025,1.04 ± 0.16
CCCCOc1ccc(CC(=O)NO)cc1,1.17 ± 0.03,0.901 ± 0.022
COc1ccc2nc3cc(Cl)ccc3c(Nc3cc(CN4CCCC4)c(O)c(CN4CCCC4)c3)c2n1,0.979 ± 0.051,1.08 ± 0.068
Nc1nc(=O)c2c([nH]1)NCC(CNc1ccc(C(=O)N[C@@H](CCC(=O)O)C(=O)O)cc1)N2C=O (some centres not stated),1.02 ± 0.013,0.923 ± 0.033
CC(=O)c1ccc2c(c1)N(CCCN1CCN(CCO)CC1)c1ccccc1S2,1.04 ± 0.024,0.807 ± 0.11
O=C(O)c1cc(=O)c2c(OCC(O)COc3cccc4oc(C(=O)O)cc(=O)c34)cccc2o1,1.06 ± 0.083,0.884 ± 0.079
CO/N=C1\CN(c2nc3c(cc2F)c(=O)c(C(=O)O)cn3C2CC2)CC1CN (configuration not stated),0.967 ± 0.014,1.15 ± 0.048
Clc1ccccc1C(c1ccccc1)(c1ccccc1)n1ccnc1,1.03 ± 0.059,0.887 ± 0.025
NC(=O)NO,0.998 ± 0.06,0.976 ± 0.038
Clc1ccc(COC(Cn2ccnc2)c2ccc(Cl)cc2Cl)cc1 (configuration not stated),0.972 ± 0.039,1.11 ± 0.19
Cc1cc(CC(C)CC(C)(C)C)n(O)c(=O)c1 (configuration not stated),1.03 ± 0.027,1.24 ± 0.035
CCCC(C(=O)OCCN(CC)CC)(c1ccccc1)c1ccccc1,0.91 ± 0.067,0.988 ± 0.14
CN1CCC[C@H]1c1cccnc1,0.982 ± 0.07,1.07 ± 0.04

SMILES,normalized intracellular growth (time point: T3 (3 h)),normalized intracellular growth (time point: Tfinal (~6 h))
O=S(=O)(O)CCSSCCS(=O)(=O)O,1.02 ± 0.061,0.986 ± 0.18
O=P(O)(O)C(O)(Cc1cccnc1)P(=O)(O)O,1.01 ± 0.063,0.987 ± 0.22
CCN(CC)C(=O)N1CCN(C)CC1,0.964 ± 0.047,1.15 ± 0.056
CC[C@]1(O)C[C@@H]2CN(CCc3c([nH]c4ccccc34)[C@@](C(=O)OC)(c3cc4c(cc3OC)N(C)[C@H]3[C@@](O)(C(=O)OC)[C@H](OC(C)=O)[C@]5(CC)C=CCN6CC[C@]43[C@@H]65)C2)C1,1.04 ± 0.094,1.12 ± 0.067
CC(CCc1ccc(O)cc1)NCC(O)c1ccc(O)cc1 (configuration not stated),1.06 ± 0.052,0.917 ± 0.087
CC(=O)[C@H]1CC[C@H]2[C@@H]3CC=C4C[C@@H](OC(=O)CCC(=O)O)CC[C@]4(C)[C@H]3CC[C@]12C,0.966 ± 0.034,0.948 ± 0.2
CCN(CCCc1ccccc1)CCCc1ccccc1,1.04 ± 0.05,1.04 ± 0.1
CCCCC(CC)COC(=O)c1ccccc1O (configuration not stated),1.05 ± 0.055,0.89 ± 0.17
CCC(=O)NCC[C@@H]1CCc2ccc3c(c21)CCO3,1.022 ± 0.01,0.8654 ± 0.0019
CNC(=O)c1c(I)c(NC(C)=O)c(I)c(C(=O)O)c1I,1.01 ± 0.056,0.883 ± 0.21
OCC(O)CN1CCN(c2ccccc2)CC1 (configuration not stated),1.03 ± 0.058,1.03 ± 0.17
CN(C)CCCC1(c2ccc(F)cc2)OCc2cc(C#N)ccc21 (configuration not stated),1.04 ± 0.12,0.857 ± 0.19
CCCC(CCC)C(=O)O,0.927 ± 0.017,0.964 ± 0.078
Cc1onc(-c2ccccc2)c1C(=O)N[C@@H]1C(=O)N2[C@@H]1SC(C)(C)[C@@H]2C(=O)O,0.987 ± 0.046,1.27 ± 0.15
Cc1c(OCC(F)(F)F)ccnc1C[S+]([O-])c1nc2ccccc2[nH]1 (configuration not stated),0.98 ± 0.034,1.08 ± 0.12
O=C([O-])C(O)[C@H](O)[C@@H](O)[C@H](O)[C@H](O)CO.O=C([O-])C(O)[C@H](O)[C@@H](O)[C@H](O)[C@H](O)CO.[Ca+2] (some centres not stated),1.04 ± 0.019,1.06 ± 0.18
CC(C)(C)NCC(O)c1ccc(O)c(CO)c1 (configuration not stated),1 ± 0.027,0.871 ± 0.13
CC(O)CC(C)(C)O (configuration not stated),1.05 ± 0.086,0.769 ± 0.19
